Residue numbers refer to the chain shown, from its start. Read-outs that look alike come from different tables or passages of the source. No constants are given. Whether binding was seen depends on the method and setting. In cells and extracts the contact can be indirect. Here binding means that the protein was enriched with, or labelled near, the bait; the list need not be complete. For part of these data: A no says only that the protein was not detected with the bait. Blank lines part the entries; values can stand above or below the molecule they belong to.
Columns and labels:
Assay in all cases: affinity purification with mass spectrometry; tandem affinity purification (IgG Sepharose, PreScission protease, Ni Sepharose) of TAP-tagged bait expressed under the 2x35S promoter in Col-0, from protein extracts of fully expanded rosette leaves at the bolting stage, long day conditions; LC-MS/MS; hits enriched over the GFP-TAP control (fold change >= 1.5, p <= 0.05)
[1] = biological target: T1, ATG5^K128R-TAP (Arabidopsis thaliana) (UniProt Q9FFI2)
T1 sequence: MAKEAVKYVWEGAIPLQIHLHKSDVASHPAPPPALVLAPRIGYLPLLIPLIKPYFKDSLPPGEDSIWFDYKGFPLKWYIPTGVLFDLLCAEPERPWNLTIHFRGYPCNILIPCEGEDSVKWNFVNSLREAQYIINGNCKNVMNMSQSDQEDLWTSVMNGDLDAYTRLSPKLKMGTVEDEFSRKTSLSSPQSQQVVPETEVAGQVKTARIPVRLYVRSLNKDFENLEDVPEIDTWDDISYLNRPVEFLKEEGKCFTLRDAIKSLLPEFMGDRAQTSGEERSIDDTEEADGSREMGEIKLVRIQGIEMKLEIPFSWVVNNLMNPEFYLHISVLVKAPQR

The chains behind the UniProt entries cited, without tags or fusion partners. Where a name states a change or a piece, a line headed by the entry shows the natural chain unless it says otherwise.
UniProt Q7DLR9: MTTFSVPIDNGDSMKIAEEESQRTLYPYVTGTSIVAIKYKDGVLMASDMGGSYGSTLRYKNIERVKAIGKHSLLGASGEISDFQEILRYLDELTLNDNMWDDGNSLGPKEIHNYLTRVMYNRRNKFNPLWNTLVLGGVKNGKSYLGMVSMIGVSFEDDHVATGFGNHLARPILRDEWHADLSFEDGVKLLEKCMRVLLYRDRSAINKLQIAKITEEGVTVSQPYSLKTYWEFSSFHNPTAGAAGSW
UniProt P30186: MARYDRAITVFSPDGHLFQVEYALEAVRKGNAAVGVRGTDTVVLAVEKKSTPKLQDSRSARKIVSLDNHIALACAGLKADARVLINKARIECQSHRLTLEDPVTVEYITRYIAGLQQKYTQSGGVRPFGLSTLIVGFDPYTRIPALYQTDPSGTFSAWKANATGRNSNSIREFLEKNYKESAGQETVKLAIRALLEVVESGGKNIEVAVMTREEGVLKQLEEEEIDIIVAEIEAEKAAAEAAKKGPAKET
UniProt Q42525: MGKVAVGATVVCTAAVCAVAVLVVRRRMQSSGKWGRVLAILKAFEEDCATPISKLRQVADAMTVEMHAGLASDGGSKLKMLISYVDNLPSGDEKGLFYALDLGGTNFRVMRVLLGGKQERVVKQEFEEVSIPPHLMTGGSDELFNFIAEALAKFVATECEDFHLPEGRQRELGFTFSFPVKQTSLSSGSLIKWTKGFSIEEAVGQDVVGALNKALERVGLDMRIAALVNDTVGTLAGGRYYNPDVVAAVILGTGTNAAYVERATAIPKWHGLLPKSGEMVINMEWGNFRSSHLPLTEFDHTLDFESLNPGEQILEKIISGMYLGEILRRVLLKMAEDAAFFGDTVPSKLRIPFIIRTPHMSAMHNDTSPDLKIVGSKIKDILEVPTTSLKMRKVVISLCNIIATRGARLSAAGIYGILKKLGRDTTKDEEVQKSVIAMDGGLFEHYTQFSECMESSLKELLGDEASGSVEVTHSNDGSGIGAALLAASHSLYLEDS
UniProt Q01474: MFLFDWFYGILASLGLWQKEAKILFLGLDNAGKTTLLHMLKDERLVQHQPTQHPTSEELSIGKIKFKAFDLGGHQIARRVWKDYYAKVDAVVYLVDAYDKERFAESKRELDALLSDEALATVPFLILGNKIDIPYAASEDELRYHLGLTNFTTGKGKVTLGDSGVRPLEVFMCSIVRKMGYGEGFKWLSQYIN
UniProt Q07100: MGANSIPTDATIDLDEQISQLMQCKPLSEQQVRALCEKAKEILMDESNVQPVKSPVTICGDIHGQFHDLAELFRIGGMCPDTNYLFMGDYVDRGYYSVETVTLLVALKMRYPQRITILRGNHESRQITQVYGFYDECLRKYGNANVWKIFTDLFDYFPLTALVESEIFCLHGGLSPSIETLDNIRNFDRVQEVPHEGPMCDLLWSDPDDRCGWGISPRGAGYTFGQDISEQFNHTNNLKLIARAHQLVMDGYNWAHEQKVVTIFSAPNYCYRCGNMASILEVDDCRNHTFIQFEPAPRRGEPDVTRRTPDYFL

[2] = biological target: T2, ATG5-TAP (Arabidopsis thaliana) (UniProt Q9FFI2)
T2 sequence: T1 sequence with R128K

[3] = biological target: T1, ATG5^K128R-TAP (Arabidopsis thaliana); remark: listed apart in the source
[4] = biological target: T2, ATG5-TAP (Arabidopsis thaliana); remark: listed apart in the source

binding [1]: binds
binding [2]: binds
Molecule: 20S proteasome subunit beta G1 (from UniProt Q7DLR9)

binding [1]: binds
binding [2]: binds
Molecule: 20S proteasome subunit alpha D1 (from UniProt P30186 1-250)

binding [1]: binds
binding [2]: no binding
Molecule: SAR1C

binding [1]: binds
binding [2]: binds
Molecule: hexokinase 1 (from UniProt Q42525 1-496)

binding [1]: binds
binding [2]: binds
Molecule: SAR1B (from UniProt Q01474 1-193)

binding [1]: no binding
binding [2]: no binding
Molecule: ATG8

binding [1]: binds
Molecule: catalytic subunit of PP2A (PP2A-3) (from UniProt Q07100 1-313)

binding [3]: binds
binding [4]: binds
B1: PP2A-A3, the scaffolding subunit of the Protein Phosphatase 2A (PP2A) (protein, UniProt Q38951 1-587)
chain: MSMVDEPLYPIAVLIDELKNDDIQRRLNSIKRLSIIARALGEERTRKELIPFLSENNDDDDEVLLAMAEELGGFILYVGGVEYAYVLLPPLETLSTVEETCVREKAVDSLCRIGAQMRESDLVEHFTPLAKRLSAGEWFTARVSACGIFHIAYPSAPDVLKTELRSIYGQLCQDDMPMVRRAAATNLGKFAATIESAHLKTDIMSMFEDLTQDDQDSVRLLAVEGCAALGKLLEPQDCVAHILPVIVNFSQDKSWRVRYMVANQLYELCEAVGPEPTRTDLVPAYARLLCDNEAEVRIAAAGKVTKFCRILNPELAIQHILPCVKELSSDSSQHVRSALASVIMGMAPVLGKDATIEHLLPIFLSLLKDEFPDVRLNIISKLDQVNQVIGIDLLSQSLLPAIVELAEDRHWRVRLAIIEYIPLLASQLGVGFFDEKLGALCMQWLQDKVHSIREAAANNLKRLAEEFGPEWAMQHIVPQVLEMINNPHYLYRMTILRAVSLLAPVMGSEITCSKLLPAVITASKDRVPNIKFNVAKMMQSLIPIVDQAVVENMIRPCLVELSEDPDVDVRYFANQALQSIDNVMMSS
